Assay results taken from patent US20080249137A1, “PPAR active compounds” (priority 2005, published 2008).
Some entries share one result that the patent states for a list of compounds.

System: T1, at least one of PPARα, PPARγ and PPARδ
T1 construct: P332. pET28 PPARA E199-Y468-X / P333. pET28 PPARG E205-Y475-X / P1057. pET BAM6 PPARD G165-Y441-X; fused on or other part: N-terminal His tag on the LBD in the biochemical assay
Test: PPAR activity assays: biochemical assay of Example 22 or cell based assay of Example 23, result pooled
Parameters: species or system human
Settings: either biochemical assay of Example 22 or cell based assay of Example 23; isoform not specified

Q: How did the EC50 turn out when `CCOc1cc(CC(=O)O)cc(Oc2cccc(-c3ccccc3C(F)(F)F)c2)c1` [Compound P-0101, [3-Ethoxy-5-(2′-trifluoromethyl-biphenyl-3-yloxy)-phenyl]-acetic acid] was run?
A: ≤ 1000 nM
